Measurements published in US20150362496A1.
No constants are given. Whether binding was seen depends on the method and setting. Some entries that bind do so weakly or less than the wild type.

The chains behind the UniProt entries cited, without tags or fusion partners. Residues count along the entry.
UniProt P12107, residues 36-1806: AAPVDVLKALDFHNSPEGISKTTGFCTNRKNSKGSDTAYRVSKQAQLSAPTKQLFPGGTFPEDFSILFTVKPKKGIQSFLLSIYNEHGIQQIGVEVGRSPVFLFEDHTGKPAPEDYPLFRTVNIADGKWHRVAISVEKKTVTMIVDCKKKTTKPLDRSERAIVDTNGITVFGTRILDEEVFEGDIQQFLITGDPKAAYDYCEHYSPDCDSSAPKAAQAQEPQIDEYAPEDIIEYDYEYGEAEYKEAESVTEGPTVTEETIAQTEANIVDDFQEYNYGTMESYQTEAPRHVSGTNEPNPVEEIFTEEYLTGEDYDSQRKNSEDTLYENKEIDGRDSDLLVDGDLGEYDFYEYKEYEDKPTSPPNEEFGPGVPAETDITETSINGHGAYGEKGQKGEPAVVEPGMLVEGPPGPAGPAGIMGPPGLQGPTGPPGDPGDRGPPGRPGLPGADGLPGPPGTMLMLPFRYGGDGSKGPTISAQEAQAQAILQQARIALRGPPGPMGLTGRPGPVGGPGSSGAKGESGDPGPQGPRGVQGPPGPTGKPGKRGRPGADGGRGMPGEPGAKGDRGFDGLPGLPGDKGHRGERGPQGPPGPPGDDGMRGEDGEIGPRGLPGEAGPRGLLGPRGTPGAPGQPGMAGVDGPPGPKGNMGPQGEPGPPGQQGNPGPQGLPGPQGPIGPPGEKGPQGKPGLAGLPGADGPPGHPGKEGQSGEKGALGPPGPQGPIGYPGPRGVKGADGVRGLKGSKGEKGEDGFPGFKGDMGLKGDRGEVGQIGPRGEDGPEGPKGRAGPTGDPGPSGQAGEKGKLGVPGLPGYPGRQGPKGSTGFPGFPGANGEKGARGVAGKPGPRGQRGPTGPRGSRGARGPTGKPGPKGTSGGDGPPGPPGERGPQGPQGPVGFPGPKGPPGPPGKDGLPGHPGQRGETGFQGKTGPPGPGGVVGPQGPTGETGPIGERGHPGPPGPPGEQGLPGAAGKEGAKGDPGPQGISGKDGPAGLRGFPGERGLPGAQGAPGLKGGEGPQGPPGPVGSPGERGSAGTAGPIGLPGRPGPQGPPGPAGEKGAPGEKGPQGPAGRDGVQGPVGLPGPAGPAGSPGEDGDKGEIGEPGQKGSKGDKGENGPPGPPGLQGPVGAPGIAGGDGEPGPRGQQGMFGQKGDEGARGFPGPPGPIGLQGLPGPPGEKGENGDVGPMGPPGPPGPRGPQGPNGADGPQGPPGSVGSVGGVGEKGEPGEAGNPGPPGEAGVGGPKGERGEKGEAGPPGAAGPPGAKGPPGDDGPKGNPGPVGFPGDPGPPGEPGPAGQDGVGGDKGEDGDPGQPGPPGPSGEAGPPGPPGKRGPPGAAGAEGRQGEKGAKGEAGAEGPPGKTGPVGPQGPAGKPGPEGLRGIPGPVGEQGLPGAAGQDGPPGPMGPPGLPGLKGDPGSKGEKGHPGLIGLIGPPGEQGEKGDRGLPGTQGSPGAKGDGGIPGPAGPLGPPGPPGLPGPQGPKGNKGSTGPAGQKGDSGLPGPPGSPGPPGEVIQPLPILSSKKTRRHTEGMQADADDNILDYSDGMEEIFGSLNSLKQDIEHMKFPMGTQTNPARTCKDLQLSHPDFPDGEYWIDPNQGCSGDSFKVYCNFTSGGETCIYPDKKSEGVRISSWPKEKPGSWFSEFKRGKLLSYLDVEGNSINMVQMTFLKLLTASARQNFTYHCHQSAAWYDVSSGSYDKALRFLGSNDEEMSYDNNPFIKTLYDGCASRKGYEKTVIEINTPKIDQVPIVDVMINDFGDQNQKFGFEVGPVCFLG

Target: proCOL11A1 protein expressed in A204 rhabdomyosarcoma cells (human) (UniProt P12107)
Test: immunocytochemistry on A204 cells

binding: binds
B1: 1E8.33 monoclonal antibody (antibody, V domains shown)
VH: EVQLQESGPELVKTGSSVKISCKASGYSFTGYYMHWVKQSQGKSLEWIGYINCYNGATSYNRNFKGKATFTVDTSSSTAYMQFNSLTSGDSAVYYCAIWDYEFHVMDYWGQRTSLTVSS
VL: ENVLTQSPAIMSASLGEKVTMSCRASSSVNYMYWYQQKSDASPKLWIYYTSNLAPGVPARFSGSGSGNSYSLTISSMEGEDADTYYCQQFTSSPWTFGGGTKLEIK
